Results as given in PMC9860500.
Results are given in words; binding and its absence hold for the method and conditions named. For some of these results: In cells and extracts the contact can be indirect. Some results given as binding are weak or reduced against the parent protein; the word gives no strength. For some of these results: Where a sequence is shown, tags or fusion partners need not be part of it.

By UniProt entry, the sequences of proteins in these tests, tags left out.
UniProt Q13547: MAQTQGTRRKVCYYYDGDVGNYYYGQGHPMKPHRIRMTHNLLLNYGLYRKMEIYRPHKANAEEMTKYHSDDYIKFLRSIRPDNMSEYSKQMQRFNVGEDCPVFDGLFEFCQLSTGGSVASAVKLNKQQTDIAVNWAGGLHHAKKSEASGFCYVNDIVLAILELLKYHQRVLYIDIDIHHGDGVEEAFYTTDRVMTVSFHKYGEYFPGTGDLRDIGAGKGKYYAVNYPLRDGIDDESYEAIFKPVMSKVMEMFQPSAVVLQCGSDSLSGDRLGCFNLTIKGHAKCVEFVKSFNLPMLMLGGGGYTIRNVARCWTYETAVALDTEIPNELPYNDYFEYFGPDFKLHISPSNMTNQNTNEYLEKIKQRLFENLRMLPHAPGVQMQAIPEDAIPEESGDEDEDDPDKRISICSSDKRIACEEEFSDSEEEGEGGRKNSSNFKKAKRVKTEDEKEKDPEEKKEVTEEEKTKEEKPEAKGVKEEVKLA
UniProt Q13330: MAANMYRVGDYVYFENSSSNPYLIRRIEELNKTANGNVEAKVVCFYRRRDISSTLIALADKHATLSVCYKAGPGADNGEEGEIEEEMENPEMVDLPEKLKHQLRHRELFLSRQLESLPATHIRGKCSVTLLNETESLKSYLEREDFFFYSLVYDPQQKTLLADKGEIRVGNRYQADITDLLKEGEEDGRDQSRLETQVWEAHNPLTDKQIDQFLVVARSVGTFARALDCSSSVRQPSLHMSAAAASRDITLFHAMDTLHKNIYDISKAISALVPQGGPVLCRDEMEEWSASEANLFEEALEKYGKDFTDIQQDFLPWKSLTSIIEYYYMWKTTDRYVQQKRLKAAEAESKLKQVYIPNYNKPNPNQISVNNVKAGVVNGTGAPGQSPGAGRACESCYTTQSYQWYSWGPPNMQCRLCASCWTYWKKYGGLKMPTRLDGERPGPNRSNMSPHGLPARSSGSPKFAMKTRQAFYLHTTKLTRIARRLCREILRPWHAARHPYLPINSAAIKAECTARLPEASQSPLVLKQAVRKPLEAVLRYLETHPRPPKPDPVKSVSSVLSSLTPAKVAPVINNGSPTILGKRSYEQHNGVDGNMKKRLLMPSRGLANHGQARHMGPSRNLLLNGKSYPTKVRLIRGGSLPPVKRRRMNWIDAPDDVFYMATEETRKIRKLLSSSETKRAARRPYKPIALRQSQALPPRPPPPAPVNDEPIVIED
UniProt Q92769: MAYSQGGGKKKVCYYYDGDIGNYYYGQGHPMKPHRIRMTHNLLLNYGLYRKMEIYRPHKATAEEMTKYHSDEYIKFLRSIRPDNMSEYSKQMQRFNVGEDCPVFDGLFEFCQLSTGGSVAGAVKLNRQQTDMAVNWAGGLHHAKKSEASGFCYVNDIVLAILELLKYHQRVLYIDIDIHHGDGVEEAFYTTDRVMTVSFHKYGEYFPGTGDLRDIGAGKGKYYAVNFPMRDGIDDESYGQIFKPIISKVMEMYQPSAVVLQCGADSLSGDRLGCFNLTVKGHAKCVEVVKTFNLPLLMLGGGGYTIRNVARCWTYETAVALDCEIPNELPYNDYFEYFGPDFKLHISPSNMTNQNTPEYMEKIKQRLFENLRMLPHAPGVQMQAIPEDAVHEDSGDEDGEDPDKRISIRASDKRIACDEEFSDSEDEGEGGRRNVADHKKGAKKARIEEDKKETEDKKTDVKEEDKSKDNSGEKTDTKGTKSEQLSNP
UniProt Q13620: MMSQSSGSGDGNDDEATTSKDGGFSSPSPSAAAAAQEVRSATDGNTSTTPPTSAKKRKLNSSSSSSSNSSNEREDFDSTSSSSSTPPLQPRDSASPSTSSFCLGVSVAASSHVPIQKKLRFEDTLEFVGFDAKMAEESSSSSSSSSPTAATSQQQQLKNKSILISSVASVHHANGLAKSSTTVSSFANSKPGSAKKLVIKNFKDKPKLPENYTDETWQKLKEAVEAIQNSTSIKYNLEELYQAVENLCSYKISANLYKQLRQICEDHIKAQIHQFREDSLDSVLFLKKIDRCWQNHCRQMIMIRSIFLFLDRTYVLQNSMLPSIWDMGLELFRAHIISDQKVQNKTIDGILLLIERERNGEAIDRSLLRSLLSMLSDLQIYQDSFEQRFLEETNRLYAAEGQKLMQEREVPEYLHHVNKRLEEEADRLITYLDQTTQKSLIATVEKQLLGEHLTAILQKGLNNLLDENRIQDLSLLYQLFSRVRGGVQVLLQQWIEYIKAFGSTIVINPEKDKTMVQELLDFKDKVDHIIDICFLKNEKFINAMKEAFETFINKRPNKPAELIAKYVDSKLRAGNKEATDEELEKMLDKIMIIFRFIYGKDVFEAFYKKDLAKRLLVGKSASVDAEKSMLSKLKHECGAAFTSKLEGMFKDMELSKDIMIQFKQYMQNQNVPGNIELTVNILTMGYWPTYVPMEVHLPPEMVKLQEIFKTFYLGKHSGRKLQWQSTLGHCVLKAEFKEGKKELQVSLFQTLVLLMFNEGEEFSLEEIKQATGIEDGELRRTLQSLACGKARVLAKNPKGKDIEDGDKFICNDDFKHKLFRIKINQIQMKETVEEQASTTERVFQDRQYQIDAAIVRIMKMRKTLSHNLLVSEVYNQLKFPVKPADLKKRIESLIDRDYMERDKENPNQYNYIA
UniProt Q16531: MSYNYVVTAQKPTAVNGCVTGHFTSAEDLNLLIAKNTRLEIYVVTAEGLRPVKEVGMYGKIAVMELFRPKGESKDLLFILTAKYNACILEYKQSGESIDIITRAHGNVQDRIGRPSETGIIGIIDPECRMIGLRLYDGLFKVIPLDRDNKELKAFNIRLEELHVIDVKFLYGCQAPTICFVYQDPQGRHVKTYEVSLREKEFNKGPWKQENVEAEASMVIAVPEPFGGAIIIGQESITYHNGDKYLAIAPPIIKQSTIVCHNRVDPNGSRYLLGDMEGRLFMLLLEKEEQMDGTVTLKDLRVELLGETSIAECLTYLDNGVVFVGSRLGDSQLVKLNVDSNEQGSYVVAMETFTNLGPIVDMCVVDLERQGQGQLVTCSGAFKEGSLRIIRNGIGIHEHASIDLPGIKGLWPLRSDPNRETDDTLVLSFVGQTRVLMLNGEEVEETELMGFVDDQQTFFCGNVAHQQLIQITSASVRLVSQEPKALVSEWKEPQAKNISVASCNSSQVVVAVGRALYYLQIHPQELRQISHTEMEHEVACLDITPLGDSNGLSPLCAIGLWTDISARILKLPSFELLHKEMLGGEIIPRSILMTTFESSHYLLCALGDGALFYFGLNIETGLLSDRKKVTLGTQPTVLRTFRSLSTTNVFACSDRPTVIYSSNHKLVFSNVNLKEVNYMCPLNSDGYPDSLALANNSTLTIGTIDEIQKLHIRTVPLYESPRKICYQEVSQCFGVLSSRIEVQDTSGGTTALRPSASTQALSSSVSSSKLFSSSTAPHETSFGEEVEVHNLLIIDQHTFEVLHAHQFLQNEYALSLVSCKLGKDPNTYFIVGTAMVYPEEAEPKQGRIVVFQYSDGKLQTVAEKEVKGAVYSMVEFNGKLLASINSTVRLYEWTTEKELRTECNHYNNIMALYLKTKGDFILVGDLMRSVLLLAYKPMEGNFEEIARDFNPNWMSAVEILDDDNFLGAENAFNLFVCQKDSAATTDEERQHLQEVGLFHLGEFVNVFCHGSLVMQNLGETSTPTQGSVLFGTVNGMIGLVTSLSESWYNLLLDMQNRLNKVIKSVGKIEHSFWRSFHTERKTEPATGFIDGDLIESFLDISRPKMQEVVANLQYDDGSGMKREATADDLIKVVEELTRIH
UniProt O94776: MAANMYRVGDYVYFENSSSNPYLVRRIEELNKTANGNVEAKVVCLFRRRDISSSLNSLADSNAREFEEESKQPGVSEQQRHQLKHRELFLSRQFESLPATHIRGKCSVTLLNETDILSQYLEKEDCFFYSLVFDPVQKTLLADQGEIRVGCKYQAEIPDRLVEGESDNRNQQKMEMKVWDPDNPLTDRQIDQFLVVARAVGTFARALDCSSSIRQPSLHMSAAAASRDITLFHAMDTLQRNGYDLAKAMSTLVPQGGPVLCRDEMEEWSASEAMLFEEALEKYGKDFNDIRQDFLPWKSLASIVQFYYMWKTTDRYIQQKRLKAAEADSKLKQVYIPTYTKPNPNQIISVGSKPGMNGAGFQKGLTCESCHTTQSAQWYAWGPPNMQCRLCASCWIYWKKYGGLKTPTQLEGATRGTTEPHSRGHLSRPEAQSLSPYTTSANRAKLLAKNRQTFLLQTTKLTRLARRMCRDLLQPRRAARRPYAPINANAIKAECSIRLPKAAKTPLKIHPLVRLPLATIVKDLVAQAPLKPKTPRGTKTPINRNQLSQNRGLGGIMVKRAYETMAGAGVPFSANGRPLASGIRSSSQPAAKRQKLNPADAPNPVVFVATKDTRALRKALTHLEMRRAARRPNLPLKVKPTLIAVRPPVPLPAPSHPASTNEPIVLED

B1: CXXC5 (protein, UniProt Q7LFL8 1-322)
chain: MSSLGGGSQDAGGSSSSSTNGSGGSGSSGPKAGAADKSAVVAAAAPASVADDTPPPERRNKSGIISEPLNKSLRRSRPLSHYSSFGSSGGSGGGSMMGGESADKATAAAAAASLLANGHDLAAAMAVDKSNPTSKHKSGAVASLLSKAERATELAAEGQLTLQQFAQSTEMLKRVVQEHLPLMSEAGAGLPDMEAVAGAEALNGQSDFPYLGAFPINPGLFIMTPAGVFLAESALHMAGLAEYPMQGELASAISSGKKKRKRCGMCAPCRRRINCEQCSSCRNRKTGHQICKFRKCEELKKKPSAALEKVMLPTGAAFRWFQ

What was measured:
[1] = target: T1, CXXC5 (human (endogenous in MCF-7 and MDA-MB-231)) (UniProt Q7LFL8); experiment: SEC; FPLC of MCF-7 nuclear extract on a Superose 6 column (20 mM Hepes pH 8.0, 10% glycerol, 0.1 mM EDTA, 300 mM NaCl), fractions analysed by Western blotting
T1 sequence: B1 chain

[2] = target: T1, CXXC5 (human (endogenous in MCF-7 and MDA-MB-231)); experiment: co-IP; endogenous proteins, whole cell lysates of MCF-7 or MDA-MB-231 cells in NETN buffer (150 mM NaCl, 2 mM EDTA, 50 mM Tris-HCl pH 8.0, 0.2% Nonidet P-40), 4 °C, protein G magnetic beads, immunoblotting; both directions
GST-tagged CXXC5 = target: T2, GST-tagged CXXC5 (UniProt Q7LFL8); experiment: pull-down; about 5 ug GST-CXXC5 on glutathione-Sepharose beads with 5 to 8 ul in vitro transcribed/translated product, 75 mM NaCl, 50 mM Hepes pH 7.9, 2 h at 4 °C, detection by Western blotting; only the target purified
T2 sequence: B1 chain

[3] = target: HDAC1 (human (endogenous in MCF-7 and MDA-MB-231)) (UniProt Q13547); experiment: co-IP; endogenous proteins, whole cell lysates of MCF-7 or MDA-MB-231 cells in NETN buffer (150 mM NaCl, 2 mM EDTA, 50 mM Tris-HCl pH 8.0, 0.2% Nonidet P-40), 4 °C, protein G magnetic beads, immunoblotting; both directions
[4] = target: MTA1 (human (endogenous in MCF-7 and MDA-MB-231)) (UniProt Q13330); experiment: as above
[5] = target: HDAC2 (human (endogenous in MCF-7 and MDA-MB-231)) (UniProt Q92769); experiment: as above
[6] = target: CUL4B (human (endogenous in MCF-7 and MDA-MB-231)) (UniProt Q13620); experiment: as above
[7] = target: DDB1 (human (endogenous in MCF-7 and MDA-MB-231)) (UniProt Q16531); experiment: as above
[8] = target: MTA2 (human (endogenous in MCF-7 and MDA-MB-231)) (UniProt O94776); experiment: as above

Molecule | binding [1] | binding [2] | also measured
CUL4B (from UniProt Q13620 1-913) | binds | binds | 
CUL4B (in vitro transcribed/translated) (from UniProt Q13620 1-913) |  |  | binding (GST-tagged CXXC5): binds
DDB1 (from UniProt Q16531 1-1140) | binds | binds | 
DDB1 (in vitro transcribed/translated) (from UniProt Q16531 1-1140) |  |  | binding (GST-tagged CXXC5): binds
HDAC1 (from UniProt Q13547 1-482) | binds | binds | 
HDAC2 (from UniProt Q92769 1-488) | binds | binds | 
B1 |  |  | binding [3]: binds; binding [4]: binds; binding [5]: binds; binding [6]: binds; binding [7]: binds; binding [8]: binds
